PubChem BioAssay AID1259254 – NCATS, 2017

Test: 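Gene knock-downs that lead to re-replication, shown by excess G2 DNA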 (primary screen)
System: human HCT116 colorectal cancer cells
Reagent: single siRNA against human genes
Duration: 3 days
Measured: 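Imaged Hoechst DNA stain sorts each cell into a cycle phase by DNA amount; per plate, G2 fraction set to 0% for non-targeting and 100% for GMNN siRNA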
Scale: G2 robust z-score and G2 cells, % of GMNN control: higher = more G2 cells, more excess DNA replication; raw share of cells in G2: higher = larger share of cells with G2 DNA content
Active means: 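An siRNA counts as active if its G2 robust z-score lies at least 5 MADs above the screen median; here such calls match roughly 38% of GMNN control or more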
The whole screen tested about 59,000 reagents; shown is a random part of them. In the full data, about 1,550 (2.6%) got an active call. 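G2 share is only a proxy for re-replication; each gene was hit by three separate siRNAs, and active genes were retested.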 Raw values are not corrected between plates. Unmarked entries are inactive. Reagents against one gene are numbered here. Not given: the amount of reagent.

| gene knocked down | reagent no. | G2 robust z-score | G2 cells, % of GMNN control | raw share of cells in G2 (%) |
| --- | --- | --- | --- | --- |
| TSPAN12 | 1 | -0.761 | -2.39 | 3.51 |
| TSPAN12 | 2 | -0.258 | 1.15 | 4.44 |
| TSPAN12 | 3 | -0.291 | 0.922 | 3.62 |
| TUBB7P | 1 | -1.35 | -6.51 | 3.58 |
| TUBB7P | 2 | -1.01 | -4.16 | 2.95 |
| TUBB7P | 3 | 0.414 | 5.88 | 6.79 |
| TAFA2 | 1 | -1.08 | -4.65 | 2.39 |
| TAFA2 | 2 | 0.611 | 7.27 | 6.44 |
| TAFA2 | 3 | -0.711 | -2.04 | 3.37 |
| HPSE | 1 | 4.09 | 31.7 | 19.5 |
| HPSE | 2 | 0.812 | 8.68 | 6.65 |
| HPSE | 3 | -0.0206 | 2.82 | 7.59 |
| ARHGAP36 | 1 | -0.647 | -1.58 | 3.04 |
| ARHGAP36 | 2 | -0.066 | 2.5 | 3.8 |
| ARHGAP36 | 3 | -0.401 | 0.145 | 2.81 |
| ACSF2 | 1 | 0.466 | 6.24 | 7.04 |
| ACSF2 | 2 | -0.251 | 1.2 | 4.83 |
| ACSF2 | 3 | -0.849 | -3.01 | 1.56 |
| TMPRSS15 | 1 | -0.396 | 0.179 | 5.62 |
| TMPRSS15 | 2 | 1.73 | 15.1 | 10.3 |
| TMPRSS15 | 3 | -0.464 | -0.299 | 3.8 |
| PLSCR3 | 1 | -1.26 | -5.89 | 1.88 |
| PLSCR3 | 2 | -0.0224 | 2.81 | 5.45 |
| PLSCR3 | 3 | 0.602 | 7.2 | 9.59 |
| SP7 | 1 | 0.308 | 5.13 | 4.86 |
| SP7 | 2 | 3.85 | 30.1 | 13.6 |
| SP7 | 3 | -0.566 | -1.02 | 3.17 |
| SGK1 | 1 | 2.64 | 21.5 | 12.7 |
| SGK1 | 2 | -1 | -4.08 | 4.03 |
| SGK1 | 3 | -0.588 | -1.17 | 3.61 |
| INPP5J | 1 | 0.955 | 9.69 | 6.41 |
| INPP5J | 2 | 5.84 (active) | 44.1 | 19.1 |
| INPP5J | 3 | -0.499 | -0.54 | 4.14 |
| HSPD1 | 1 | 2.9 | 23.4 | 12.7 |
| HSPD1 | 2 | -0.768 | -2.43 | 3.71 |
| HSPD1 | 3 | 0.242 | 4.67 | 4.8 |
| DYNLT5 | 1 | -1.17 | -5.27 | 1.72 |
| DYNLT5 | 2 | 1.68 | 14.8 | 7.91 |
| DYNLT5 | 3 | -0.377 | 0.313 | 2.86 |
| TRIM39 | 1 | 2.18 | 18.3 | 14.5 |
| TRIM39 | 2 | 3.42 | 27 | 14.1 |
| TRIM39 | 3 | 0.671 | 7.69 | 7.54 |
| SYNRG | 1 | -1.19 | -5.4 | 2.87 |
| SYNRG | 2 | 2.77 | 22.4 | 13.4 |
| SYNRG | 3 | -0.18 | 1.7 | 3.81 |
| AK4P3 | 1 | 0.434 | 6.02 | 5.46 |
| AK4P3 | 2 | -0.389 | 0.231 | 3.12 |
| AK4P3 | 3 | -1.06 | -4.53 | 2.07 |
| PKD2L1 | 1 | -0.333 | 0.625 | 5.52 |
| PKD2L1 | 2 | -0.466 | -0.311 | 4.68 |
| PKD2L1 | 3 | 0.109 | 3.74 | 5.83 |
| DNAH17 | 1 | 4.07 | 31.6 | 15.2 |
| DNAH17 | 2 | -0.112 | 2.18 | 3.89 |
| DNAH17 | 3 | -0.0846 | 2.37 | 3.99 |
| TMEM86A | 1 | -0.183 | 1.68 | 4.39 |
| TMEM86A | 2 | -0.554 | -0.934 | 2.62 |
| TMEM86A | 3 | 1.51 | 13.6 | 7.82 |
| GRID1 | 1 | 2.48 | 20.4 | 12.7 |
| GRID1 | 2 | -0.0879 | 2.35 | 5.58 |
| GRID1 | 3 | 5.45 (active) | 41.3 | 20.5 |
| KLF9 | 1 | -0.669 | -1.74 | 2.77 |
| KLF9 | 2 | 2.82 | 22.8 | 15.5 |
| KLF9 | 3 | 1.95 | 16.7 | 9.17 |
| UQCC2 | 1 | -0.582 | -1.13 | 2.06 |
| UQCC2 | 2 | -0.482 | -0.424 | 3.97 |
| UQCC2 | 3 | -0.34 | 0.578 | 3.63 |
| CHL1 | 1 | -0.993 | -4.02 | 3.95 |
| CHL1 | 2 | 0.0965 | 3.65 | 5.02 |
| CHL1 | 3 | -1.1 | -4.76 | 4.6 |

In a second layout: results already given
{"gene knocked down":"INPP5J","reagent no.":2,"G2 robust z-score":"5.84 (active)","G2 cells, % of GMNN control":44.1,"raw share of cells in G2 (%)":19.1}
{"gene knocked down":"INPP5J","reagent no.":3,"G2 robust z-score":-0.499,"G2 cells, % of GMNN control":-0.54,"raw share of cells in G2 (%)":4.14}
{"gene knocked down":"HSPD1","reagent no.":1,"G2 robust z-score":2.9,"G2 cells, % of GMNN control":23.4,"raw share of cells in G2 (%)":12.7}
{"gene knocked down":"HSPD1","reagent no.":2,"G2 robust z-score":-0.768,"G2 cells, % of GMNN control":-2.43,"raw share of cells in G2 (%)":3.71}
{"gene knocked down":"HSPD1","reagent no.":3,"G2 robust z-score":0.242,"G2 cells, % of GMNN control":4.67,"raw share of cells in G2 (%)":4.8}
{"gene knocked down":"DYNLT5","reagent no.":1,"G2 robust z-score":-1.17,"G2 cells, % of GMNN control":-5.27,"raw share of cells in G2 (%)":1.72}
